Values quoted from earlier work as cited in patent publication US7862836B2, “Phosphorus binder for treatment of kidney disease” (Biolink Life Sciences, Inc., priority 2005, dated 2011).

Settings: cited from earlier work; for Fractional calcium absorption / 10-h urinary calcium excretion: mean ± SE

Substance: Magnesium Acetate
- Net calcium absorption from the standard meal (increasing amounts of magnesium acetate): unaffected
- Fractional calcium absorption (standard meal + 10.2 mEq MgAc, eight subjects): 25.9 ± 2.9%
- 10-h urinary calcium excretion (standard meal + 10.2 mEq MgAc): 3.1 ± 0.6 mEq
- 10-h urinary calcium excretion (standard meal + 19.4 mEq MgAc): 3.3 ± 0.6 mEq
- Fractional calcium absorption (standard meal + 19.4 mEq MgAc): 24.5 ± 3.7%
- 10-h urinary calcium excretion (standard meal + 39.0 mEq MgAc): 3.9 ± 0.5 mEq
- Fractional calcium absorption (standard meal + 39.0 mEq MgAc): 25.4 ± 3.8%
- 10-h urinary calcium excretion (standard meal + 77.2 mEq MgAc): 4.9 ± 0.5 mEq
- Fractional calcium absorption (standard meal + 77.2 mEq MgAc): 24.0 ± 4.2%

Like-named read-outs stand apart in the source and are kept apart here.
